# Results: PubChem BioAssay AID504467 (National Center for Advancing Translational Sciences (NCATS), 2011)
# Out of some 330,000 compounds screened, about 7,700 (2.3%) were called active. The shares of active, inactive and inconclusive entries below differ from those in the screen. Calls come from the whole dose curve; as a rule, active = well fitted inhibition curve with a large enough effect; inconclusive = small, poorly fitted or top-dose-only effect, or effect the other way; inactive = flat fitted curve, though single readings scatter. Potencies of inconclusive entries are doubtful fits and often do not repeat.
# Assay: qHTS screen for small molecules that inhibit ELG1-dependent DNA repair in human embryonic kidney (HEK293T) cells expressing luciferase-tagged ELG1; note: nearly all actives have a fitted effect of over 55% in size
# Conditions: HEK293T ELG1-luciferase reporter, luminescence, 16 h, DNA damage induced by 5-fluorouridine; series mostly up to 46.1 µM
# Text: NIH Molecular Libraries Probe Production Network [MLPCN] NIH Chemical Genomics Center [NCGC] MLPCN Grant: 1 R03 MH092164-01 Assay Provider: Kyungjae Myung, NHGRI, NIH Keywords: MLPCN, qHTS, NCGC, genotoxicity, cancer Assay Overview: Cancer cells divide rapidly compared to normal cells in the body. During cell division, cancer cells need to duplicate their genome by DNA replication. The failure of genome duplication leads to cancer cells' death. Therefore, inhibitors of DNA replication could specifically kill cancer cells. Based on this concept, many chemotherapeutic agents were developed and have been used to treat cancer patients. However, there are a limited number of agents available in the clinical setting, and some of those that do exist have low efficacy and severe side effects. Therefore, if we can find the compounds that effectively block DNA replication either by directly damaging DNA or by inhibiting other cellular mechanisms, the options for cancer treatment will be broadened. With this in mind, we developed a quantitative high-throughput ELG1-luciferase reporter gene assay. Small molecules that specifically block ELG1 function in response to DNA damage can be identified by monitoring the suppression of luciferase activity. Since ELG1 defines a pathway for repairing DNA damage, agents blocking ELG1 function can be used to sensitize cancer cells to chemotherapeutic agents whose mechanism of action involves the induction of DNA damage.
# Assay Protocol Summary: For genotoxicity screening, 2,000 cells in 4 uL/well were dispensed into white, solid-bottom 1536-well plates using a solenoid-based dispenser. Following transfer of 1 uL 5-Fluorouridine and 23 nL compound or DMSO vehicle by a pin tool, the plates were incubated 16 hr at 37 °C and 5% CO2. 5 ul ONE-Glo (Promega) was then added to each plate and following a 30 min incubation at room temperature, luciferase activity was quantified on a ViewLux CCD-based plate reader.
# Potency is the fitted concentration of half-maximal effect.
row,SMILES,Potency
1,Cc1c(C(=O)O)sc(S(=O)(=O)N2CCN(C(=O)Cc3ccc(F)cc3)CC2)c1C(=O)O,inactive
2,O=C(CNC(=O)Cn1cnc2sc3c(c2c1=O)CCCC3)NCc1ccccn1,inactive
3,Cc1c(NC(=O)c2ncn[nH]2)cccc1-c1nc2ccccc2s1,"inconclusive: 18.4 µM [activator, partial curve]"
4,CC(C(=O)N1CCN=C1c1ccccc1)N1C(=O)c2ccccc2C1=O (configuration not stated),"inconclusive: 0.326 µM [activator, partial curve, poor fit]"
5,Cc1nn(-c2ccccc2)c2c1C(c1ccccc1)C(C#N)=C(N)O2 (configuration not stated),inactive
6,N#C/C(=C\c1ccc[nH]1)C(=O)Nc1ccccc1[N+](=O)[O-],"inconclusive: 6.51 µM [activator, partial curve]"
7,COc1cc2[nH]c(C(=O)NCc3ccccc3)cc2c(OC)c1OC,inactive
8,CCC(N=c1cc(-c2ccc(OC)c(OC)c2)oc2ccc(C)cc12)C(=O)O (configuration not stated),"inconclusive: 9.2 µM [activator, partial curve]"
9,COc1ccc(/C=C/C(=O)NCC(=O)N/N=C(/C)c2ccc(Cl)cc2)cc1,"inconclusive: 16.4 µM [activator, partial curve, poor fit]"
10,COC(=O)c1ccc(NC(=O)c2ccccc2)o1,"inconclusive: 20.6 µM [activator, partial curve]"
11,CC(Sc1n[nH]c(N)n1)C(=O)C12CC3CC(CC(C3)C1)C2 (configuration not stated),inactive
12,COc1ccc(-c2cc(C(=O)OCC(=O)N(C)C)c3ccccc3n2)cc1,"inconclusive: 29.1 µM [inhibitor, single point]"
13,Cc1ccc(C)c(N2CCN(C(=O)CCCCn3c(=O)[nH]c4ccccc4c3=O)CC2)c1,"inconclusive: 29.1 µM [inhibitor, single point]"
14,O=C(/C=C/c1ccccc1)c1ccccn1,"inconclusive: 18.4 µM [activator, partial curve]"
15,O=C(Nc1cccc([N+](=O)[O-])c1)C1CC(=O)N(C2CCCCC2)C1 (configuration not stated),inactive
16,CCN(CC)S(=O)(=O)c1ccc(/C=C/C(=O)OCC(=O)NCc2cccs2)cc1,"inconclusive: 16.4 µM [inhibitor, single point]"
17,Cn1c(=O)n(CC(=O)O)c(=O)c2c1nc1n2CCCN1CCc1ccccc1,inactive
18,Cc1cc(Cl)ccc1OCC(=O)NCCOc1nc(N2CCCCC2)nc(N2CCOCC2)n1,inactive
19,Cc1sc2ncnc(NCc3ccccc3)c2c1C,"inconclusive: 29.1 µM [activator, partial curve, poor fit]"
20,COc1ccsc1NC(=O)OCc1ccc(Cl)cc1,"inconclusive: 29.1 µM [activator, single point]"
21,Cc1cc(=O)[nH]c2ccc(S(=O)(=O)Nc3ccc(O)cc3)cc12,"inconclusive: 25.9 µM [activator, single point]"
22,CC(=O)c1cccc(NC(=O)Nc2ccc3c(c2)CCC3)c1,"inconclusive: 16.4 µM [activator, partial curve]"
23,COc1ccccc1OCCOc1ccc(/C=C2\C(=N)N3N=C(S(C)(=O)=O)SC3=NC2=O)cc1,inactive
24,O=C1CC2(CCN(C(=O)COc3ccccc3F)CC2)Oc2ccccc21,"inconclusive: 10.3 µM [inhibitor, single point]"

row,SMILES,Potency
1,CCOc1cc(CNCCCN2CCOCC2)cc(Br)c1OCc1ccccc1Cl,inactive
2,COc1cc(/C=N/Nc2nn3cnnc3c3ccccc23)ccc1O,"inconclusive: 18.4 µM [activator, single point]"
3,CC(=O)Oc1ccc(OC(C)=O)c(SCCCCCN2CCOCC2)c1,inactive
4,CC1(c2ccc3noc(-c4ccccc4)c3c2)OCCO1,"inconclusive: 20.6 µM [inhibitor, single point]"
5,O=C(COc1ccc(F)cc1Br)N1CCN(S(=O)(=O)/C=C/c2ccccc2)CC1,"inconclusive: 25.9 µM [inhibitor, partial curve, poor fit]"
6,COc1ccc(Br)cc1CN1CCN(C(=O)c2ccc(F)cc2)CC1,inactive
7,CCOc1cccc(OCCOCCOc2ccccc2C(C)=O)c1,inactive
8,CC(=O)c1ccc(NC(=O)CCOc2cc(C)ccc2C)cc1,"inconclusive: 16.4 µM [activator, single point]"
9,O=C(NC(=S)Nc1ccc(CN2CCOCC2)cc1)c1ccccc1[N+](=O)[O-],inactive
10,CC(=O)N1c2ccc(S(=O)(=O)NCc3ccco3)cc2CC1C (configuration not stated),"inconclusive: 14.6 µM [activator, single point]"
11,CCOC(=O)C1CCN(c2ccccc2CN2CCN(c3ccccc3OCC)CC2)CC1,active: 16.4 µM
12,COc1ccc(C(=O)Nc2ccc(CN3CCOCC3)cc2)cc1,"inconclusive: 16.4 µM [activator, partial curve]"
13,COc1ccc(CCNC(=O)c2cnn3ccccc23)c(OC)c1OC,"inconclusive: 16.4 µM [inhibitor, partial curve, poor fit]"
14,COc1ccc(OC)c(NC(=O)c2nnn(CCc3ccccc3)c2N)c1,"inconclusive: 13 µM [activator, partial curve, poor fit]"
15,COc1ccc(CNC(=O)C(c2ccco2)N(C(=O)c2ccccn2)c2ccccc2)cc1 (configuration not stated),"inconclusive: 5.17 µM [activator, partial curve]"
16,O=C(c1ccccc1Br)N1CCn2c1nc1ccccc12,inactive
17,COc1ccc(C2c3ccc4ccccc4c3Oc3ncn(CCCO)c(=N)c32)cc1 (configuration not stated),"inconclusive: 29.1 µM [inhibitor, single point]"
18,COc1ccc(CN(C)C(=S)Nc2ccc(OC(F)F)cc2)cc1,"inconclusive: 20.6 µM [inhibitor, single point]"
19,O=C(NC(c1ccccc1)c1ccccc1)c1cccc(S(=O)(=O)NCc2ccccc2)c1,"inconclusive: 29.1 µM [inhibitor, single point]"
20,Cc1nc(-c2ccc(C(=O)N3CCCC3)cc2)cs1,"inconclusive: 9.2 µM [activator, partial curve]"
21,Cc1ccc(NC(=O)CSc2ccc(-c3cccnc3)nn2)cc1,"inconclusive: 7.3 µM [inhibitor, partial curve]"
22,O=C(/C=C/c1ccco1)Nc1nc(-c2ccccn2)cs1,"inconclusive: 23.1 µM [inhibitor, single point]"
23,c1ccc(CSc2ncnc3sccc23)cc1,"inconclusive: 23.1 µM [activator, single point]"
24,CCn1c(CNC(=O)c2ccc(OC)c(OC)c2)nnc1SCC(=O)c1ccc(OC)cc1,"inconclusive: 20.6 µM [inhibitor, partial curve, poor fit]"

# Exported as tab-separated lines: entries from further up.
row	SMILES	Potency
11	CC(Sc1n[nH]c(N)n1)C(=O)C12CC3CC(CC(C3)C1)C2 (configuration not stated)	inactive
12	COc1ccc(-c2cc(C(=O)OCC(=O)N(C)C)c3ccccc3n2)cc1	inconclusive: 29.1 µM [inhibitor, single point]

# The list goes on.

row,SMILES,Potency
1,Cc1nnc(C)n1/N=C/c1cccn1C,inactive
2,NC(=O)c1ccsc1NC(=O)CCc1ccccc1,"inconclusive: 6.51 µM [activator, partial curve]"
3,O=C(CN1C(=O)NC2(CCCc3ccccc32)C1=O)c1ccc(Br)cc1 (configuration not stated),inactive
4,O=C(O)C(Cc1ccccc1)NC(=O)C(c1ccccc1)c1ccccc1 (configuration not stated),inactive
5,c1ccc(-n2nnc3c(N4CCOCC4)ncnc32)cc1,"inconclusive: 0.259 µM [activator, partial curve]"
6,COc1ccccc1-c1nnc(SCC(=O)N2CCOCC2)o1,"inconclusive: 20.6 µM [activator, partial curve]"
7,COc1ncccc1-c1nnn(-c2ccc(C)cc2)n1,"inconclusive: 10.3 µM [activator, partial curve]"
8,COc1c(Cl)cc(Cl)cc1/C=C/C(=O)c1ccc(NC(=O)c2cccs2)cc1,"inconclusive: 29.1 µM [inhibitor, single point]"
9,CSc1nc(Nc2ccc(Cl)cc2)c(C#N)c(=O)[nH]1,inactive
10,O=C(Nc1ccc2c(c1)OCCO2)c1ccc(Br)s1,"inconclusive: 0.92 µM [activator, partial curve]"
11,COCCn1c(C)cc(C(=O)CN2C(=O)NC3(CCCCCCC3)C2=O)c1C,"inconclusive: 16.4 µM [activator, partial curve]"
12,O=C(CSc1nnc(-c2cccs2)o1)N1CCOCC1,"inconclusive: 11.6 µM [activator, partial curve]"
13,COC(CNC(=O)c1ccc2c(c1)nc(C)n2-c1cccc(C)c1)OC,inactive
14,O=C(COC(=O)/C=C/c1cccc(C(F)(F)F)c1)Nc1ccc(Cl)cn1,"inconclusive: 29.1 µM [activator, single point]"
15,CCN(CC)c1ccc(NC(=O)c2ccccc2OCC(=O)OC)cc1,inactive
16,O=C(/C=C/c1ccccc1Cl)NNC(=O)c1ccncc1,inactive
17,COc1ccc(NC(=O)CCCc2nc3ccccc3c(=O)[nH]2)cc1Cl,inactive
18,Cc1ccccc1NC(=O)c1ccc(F)c(S(=O)(=O)N2CCCCC2)c1,"inconclusive: 13 µM [inhibitor, partial curve, poor fit]"
19,O=c1c2ccccc2ncn1CCOc1ccccc1[N+](=O)[O-],"inconclusive: 20.6 µM [activator, partial curve]"
20,COc1cccc(OCC(=O)Nc2c3c(nn2-c2ccccc2)CS(=O)(=O)C3)c1,"inconclusive: 29.1 µM [inhibitor, single point]"
21,CC1CCC(NC(=O)CSc2nnc(-c3cccnc3)o2)CC1 (configuration not stated),inactive
22,Fc1ccc(C2c3[nH]c4ccccc4c3CCN2Cc2ccoc2)cc1 (configuration not stated),"inconclusive: 32.6 µM [inhibitor, partial curve, poor fit]"
23,Cc1cccc(CCN(Cc2cc3cccc(C)c3[nH]c2=O)C(=O)N2CCOCC2)c1,"inconclusive: 9.2 µM [inhibitor, single point]"
24,COc1cccc(NC(=S)N2CCC(N(C)CC3CCCO3)CC2)c1 (configuration not stated),"inconclusive: 18.4 µM [activator, partial curve, poor fit]"

# Molecules listed so far that contain a cyano group:
row,SMILES,Potency
5,Cc1nn(-c2ccccc2)c2c1C(c1ccccc1)C(C#N)=C(N)O2 (configuration not stated),inactive
6,N#C/C(=C\c1ccc[nH]1)C(=O)Nc1ccccc1[N+](=O)[O-],"inconclusive: 6.51 µM [activator, partial curve]"
9,CSc1nc(Nc2ccc(Cl)cc2)c(C#N)c(=O)[nH]1,inactive
